Test results published in publication doi:10.1101/2025.10.27.684818.
No constants are given. Whether binding was seen depends on the method and setting. Binding seen in cells or lysates may run through a third protein. Some entries that bind do so weakly or less than the wild type. Where a sequence is shown, tags or fusion partners need not be part of it.

T1: LEA5-Cnluc (BH-lea5-Cnluc) (Arabidopsis thaliana) (UniProt P42759)
T1 sequence: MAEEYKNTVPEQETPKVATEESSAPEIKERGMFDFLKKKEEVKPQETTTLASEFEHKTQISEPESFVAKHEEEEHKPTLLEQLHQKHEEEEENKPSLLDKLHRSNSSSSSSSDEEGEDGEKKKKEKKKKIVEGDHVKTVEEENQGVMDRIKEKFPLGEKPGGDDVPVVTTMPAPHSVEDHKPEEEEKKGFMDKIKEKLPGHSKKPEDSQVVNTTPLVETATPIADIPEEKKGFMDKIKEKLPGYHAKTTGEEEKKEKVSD

T2: LEA5 rBiFC bait (LEA5 carrying the C-terminal of YFP, pBiFCt-2in1-CC) (Arabidopsis thaliana) (UniProt P42759)
T2 sequence: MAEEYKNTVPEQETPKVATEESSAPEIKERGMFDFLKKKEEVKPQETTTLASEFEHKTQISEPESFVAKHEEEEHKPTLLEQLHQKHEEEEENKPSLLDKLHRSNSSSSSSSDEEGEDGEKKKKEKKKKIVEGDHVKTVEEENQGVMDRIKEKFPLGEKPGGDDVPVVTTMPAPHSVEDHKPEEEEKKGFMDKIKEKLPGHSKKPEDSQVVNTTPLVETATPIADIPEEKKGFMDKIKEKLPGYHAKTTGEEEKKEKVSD


Tests used:
[1] = biological target: T1, LEA5-Cnluc (BH-lea5-Cnluc) (Arabidopsis thaliana); experiment: split reporter
[2] = biological target: T2, LEA5 rBiFC bait (LEA5 carrying the C-terminal of YFP, pBiFCt-2in1-CC) (Arabidopsis thaliana); experiment: split reporter

Binder	binding [1]	binding [2]
PLDα1-Nnluc (ZKpldα1-Nnluc) (enzyme, UniProt Q38882 1-810) MAQHLLHGTLHATIYEVDALHGGGVRQGFLGKILANVEETIGVGKGETQLYATIDLQKARVGRTRKIKNEPKNPKWYESFHIYCAHLASDIIFTVKDDNPIGATLIGRAYIPVDQVINGEEVDQWVEILDNDRNPIQGGSKIHVKLQYFHVEEDRNWNMGIKSAKFPGVPYTFFSQRQGCKVSLYQDAHIPDNFVPRIPLAGGKNYEPQRCWEDIFDAISNAKHLIYITGWSVYAEIALVRDSRRPKPGGDVTIGELLKKKASEGVRVLLLVWDDRTSVDVLKKDGLMATHDEETENFFRGSDVHCILCPRNPDDGGSIVQSLQISTMFTHHQKIVVVDSEMPSRGGSEMRRIVSFVGGIDLCDGRYDTPFHSLFRTLDTVHHDDFHQPNFTGAAITKGGPREPWHDIHSRLEGPIAWDVMYNFEQRWSKQGGKDILVKLRDLSDIIITPSPVMFQEDHDVWNVQLFRSIDGGAAAGFPESPEAAAEAGLVSGKDNIIDRSIQDAYIHAIRRAKDFIYVENQYFLGSSFAWAADGITPEDINALHLIPKELSLKIVSKIEKGEKFRVYVVVPMWPEGLPESGSVQAILDWQRRTMEMMYKDVIQALRAQGLEEDPRNYLTFFCLGNREVKKDGEYEPAEKPDPDTDYMRAQEARRFMIYVHTKMMIVDDEYIIIGSANINQRSMDGARDSEIAMGGYQPHHLSHRQPARGQIHGFRMSLWYEHLGMLDETFLDPSSLECIEKVNRISDKYWDFYSSESLEHDLPGHLLRYPIGVASEGDITELPGFEFFPDTKARILGTKSDYLPPILTT	binds	–
LEA4-Nnluc (ZKlea4-Nnluc) (protein, UniProt P31168 1-265) MAEEYKNNVPEHETPTVATEESPATTTEVTDRGLFDFLGKKEEEVKPQETTTLESEFDHKAQISEPELAAEHEEVKENKITLLEELQEKTEEDEENKPSVIEKLHRSNSSSSSSSDEEGEEKKEKKKKIVEGEEDKKGLVEKIKEKLPGHHDKTAEDDVPVSTTIPVPVSESVVEHDHPEEEKKGLVEKIKEKLPGHHDEKAEDSPAVTSTPLVVTEHPVEPTTELPVEHPEEKKGILEKIKEKLPGYHAKTTEEEVKKEKESDD	binds	–
OSCA3 rBiFC prey (carrying the N-terminal of YFP) (protein, UniProt Q9C8G5 1-724) MEFGSFLVSLGTSFVIFVILMLLFTWLSRKSGNAPIYYPNRILKGLEPWEGTSLTRNPFAWMREALTSSEQDVVNLSGVDTAVHFVFLSTVLGIFACSSLLLLPTLLPLAATDNNIKNTKNATDTTSKGTFSQLDNLSMANITKKSSRLWAFLGAVYWISLVTYFFLWKAYKHVSSLRAQALMSADVKPEQFAILVRDMPAPPDGQTQKEFIDSYFREIYPETFYRSLVATENSKVNKIWEKLEGYKKKLARAEAILAATNNRPTNKTGFCGLVGKQVDSIEYYTELINESVAKLETEQKAVLAEKQQTAAVVFFTTRVAAASAAQSLHCQMVDKWTVTEAPEPRQLLWQNLNIKLFSRIIRQYFIYFFVAVTILFYMIPIAFVSAITTLKNLQRIIPFIKPVVEITAIRTVLESFLPQIALIVFLAMLPKLLLFLSKAEGIPSQSHAIRAASGKYFYFSVFNVFIGVTLAGTLFNTVKDIAKNPKLDMIINLLATSLPKSATFFLTYVALKFFIGYGLELSRIIPLIIFHLKKKYLCKTEAEVKEAWYPGDLSYATRVPGDMLILTITFCYSVIAPLILIFGITYFGLGWLVLRNQALKVYVPSYESYGRMWPHIHQRILAALFLFQVVMFGYLGAKTFFYTALVIPLIITSLIFGYVCRQKFYGGFEHTALEVACRELKQSPDLEEIFRAYIPHSLSSHKPEEHEFKGAMSRYQDFNAIAGV	–	binds
LEA10 rBiFC prey (carrying the N-terminal of YFP) (protein, UniProt P42763 1-185) MAEEIKNVPEQEVPKVATEESSAEVTDRGLFDFLGKKKDETKPEETPIASEFEQKVHISEPEPEVKHESLLEKLHRSDSSSSSSSEEEGSDGEKRKKKKEKKKPTTEVEVKEEEKKGFMEKLKEKLPGHKKPEDGSAVAAAPVVVPPPVEEAHPVEKKGILEKIKEKLPGYHPKTTVEEEKKDKE	–	binds

The remaining lines, values ahead:

binding [1]	binding [2]	Binder
–	binds	PLDα1 rBiFC prey (carrying the N-terminal of YFP) (enzyme, UniProt Q38882 1-810) MAQHLLHGTLHATIYEVDALHGGGVRQGFLGKILANVEETIGVGKGETQLYATIDLQKARVGRTRKIKNEPKNPKWYESFHIYCAHLASDIIFTVKDDNPIGATLIGRAYIPVDQVINGEEVDQWVEILDNDRNPIQGGSKIHVKLQYFHVEEDRNWNMGIKSAKFPGVPYTFFSQRQGCKVSLYQDAHIPDNFVPRIPLAGGKNYEPQRCWEDIFDAISNAKHLIYITGWSVYAEIALVRDSRRPKPGGDVTIGELLKKKASEGVRVLLLVWDDRTSVDVLKKDGLMATHDEETENFFRGSDVHCILCPRNPDDGGSIVQSLQISTMFTHHQKIVVVDSEMPSRGGSEMRRIVSFVGGIDLCDGRYDTPFHSLFRTLDTVHHDDFHQPNFTGAAITKGGPREPWHDIHSRLEGPIAWDVMYNFEQRWSKQGGKDILVKLRDLSDIIITPSPVMFQEDHDVWNVQLFRSIDGGAAAGFPESPEAAAEAGLVSGKDNIIDRSIQDAYIHAIRRAKDFIYVENQYFLGSSFAWAADGITPEDINALHLIPKELSLKIVSKIEKGEKFRVYVVVPMWPEGLPESGSVQAILDWQRRTMEMMYKDVIQALRAQGLEEDPRNYLTFFCLGNREVKKDGEYEPAEKPDPDTDYMRAQEARRFMIYVHTKMMIVDDEYIIIGSANINQRSMDGARDSEIAMGGYQPHHLSHRQPARGQIHGFRMSLWYEHLGMLDETFLDPSSLECIEKVNRISDKYWDFYSSESLEHDLPGHLLRYPIGVASEGDITELPGFEFFPDTKARILGTKSDYLPPILTT
–	binds	LEA4 rBiFC prey (carrying the N-terminal of YFP) (protein, UniProt P31168 1-265) MAEEYKNNVPEHETPTVATEESPATTTEVTDRGLFDFLGKKEEEVKPQETTTLESEFDHKAQISEPELAAEHEEVKENKITLLEELQEKTEEDEENKPSVIEKLHRSNSSSSSSSDEEGEEKKEKKKKIVEGEEDKKGLVEKIKEKLPGHHDKTAEDDVPVSTTIPVPVSESVVEHDHPEEEKKGLVEKIKEKLPGHHDEKAEDSPAVTSTPLVVTEHPVEPTTELPVEHPEEKKGILEKIKEKLPGYHAKTTEEEVKKEKESDD
binds	–	OSCA3-Nnluc (ZKosca3-Nnluc) (protein, UniProt Q9C8G5 1-724) MEFGSFLVSLGTSFVIFVILMLLFTWLSRKSGNAPIYYPNRILKGLEPWEGTSLTRNPFAWMREALTSSEQDVVNLSGVDTAVHFVFLSTVLGIFACSSLLLLPTLLPLAATDNNIKNTKNATDTTSKGTFSQLDNLSMANITKKSSRLWAFLGAVYWISLVTYFFLWKAYKHVSSLRAQALMSADVKPEQFAILVRDMPAPPDGQTQKEFIDSYFREIYPETFYRSLVATENSKVNKIWEKLEGYKKKLARAEAILAATNNRPTNKTGFCGLVGKQVDSIEYYTELINESVAKLETEQKAVLAEKQQTAAVVFFTTRVAAASAAQSLHCQMVDKWTVTEAPEPRQLLWQNLNIKLFSRIIRQYFIYFFVAVTILFYMIPIAFVSAITTLKNLQRIIPFIKPVVEITAIRTVLESFLPQIALIVFLAMLPKLLLFLSKAEGIPSQSHAIRAASGKYFYFSVFNVFIGVTLAGTLFNTVKDIAKNPKLDMIINLLATSLPKSATFFLTYVALKFFIGYGLELSRIIPLIIFHLKKKYLCKTEAEVKEAWYPGDLSYATRVPGDMLILTITFCYSVIAPLILIFGITYFGLGWLVLRNQALKVYVPSYESYGRMWPHIHQRILAALFLFQVVMFGYLGAKTFFYTALVIPLIITSLIFGYVCRQKFYGGFEHTALEVACRELKQSPDLEEIFRAYIPHSLSSHKPEEHEFKGAMSRYQDFNAIAGV
–	binds	LEA5 rBiFC bait (LEA5 carrying the C-terminal of YFP, pBiFCt-2in1-CC) (protein, UniProt P42759 1-260) MAEEYKNTVPEQETPKVATEESSAPEIKERGMFDFLKKKEEVKPQETTTLASEFEHKTQISEPESFVAKHEEEEHKPTLLEQLHQKHEEEEENKPSLLDKLHRSNSSSSSSSDEEGEDGEKKKKEKKKKIVEGDHVKTVEEENQGVMDRIKEKFPLGEKPGGDDVPVVTTMPAPHSVEDHKPEEEEKKGFMDKIKEKLPGHSKKPEDSQVVNTTPLVETATPIADIPEEKKGFMDKIKEKLPGYHAKTTGEEEKKEKVSD
no binding	–	LEA8-Nnluc (ZKlea8-Nnluc) (protein, UniProt Q9SLJ2 1-98) MAGLINKIGDALHIGGGNKEGEHKKEEEHKKHVDEHKSGEHKEGIVDKIKDKIHGGEGKSHDGEGKSHDGEKKKKKDKKEKKHHDDGHHSSSSDSDSD
binds	–	LEA10 split-luciferase prey (protein, UniProt P42763 1-185) MAEEIKNVPEQEVPKVATEESSAEVTDRGLFDFLGKKKDETKPEETPIASEFEQKVHISEPEPEVKHESLLEKLHRSDSSSSSSSEEEGSDGEKRKKKKEKKKPTTEVEVKEEEKKGFMEKLKEKLPGHKKPEDGSAVAAAPVVVPPPVEEAHPVEKKGILEKIKEKLPGYHPKTTVEEEKKDKE
